## Library compounds against nucleic acid targets

Oligonucleotides screened, 5′ to 3′:
PreQ1: PreQ1 riboswitch RNA pseudoknot, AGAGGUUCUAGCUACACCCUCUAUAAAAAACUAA. From B. subtilis. About 170 hits among about 24,000 compounds.
TPP: TPP riboswitch RNA three-way junction, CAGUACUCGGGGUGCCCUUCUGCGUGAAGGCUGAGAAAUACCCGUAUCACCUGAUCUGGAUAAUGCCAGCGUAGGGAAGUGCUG. About 160 hits among about 24,000 compounds.
SAM-II: SAM-II riboswitch RNA pseudoknot, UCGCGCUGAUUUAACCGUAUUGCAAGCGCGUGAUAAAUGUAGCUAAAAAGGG. About 200 hits among about 21,000 compounds.

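Each compound is printed as two spots on a slide made to bind it covalently, so it has no test concentration; the read-out is fluorescence of the bound, labelled oligonucleotide. The data file lists only calls. An earlier report of the laboratory on the PreQ1, TPP and SAM-II riboswitches (doi:10.1038/s41467-019-09493-3) used 1 µM RNA for 2 h and required a mean Z-score above 3 (spot signal-to-noise against the whole library), a score well above that on a control array, and duplicate spots agreeing (coefficient of variation under 100); it then also set aside compounds that hit other targets, which this list keeps. The cut-offs behind this list may differ. A missing hit is not proof of no binding, and a hit is not a measured affinity.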 Key: active = hit, inactive = tested without a hit. The compounds are a random part of those screened. A dash means that no call is listed here.

| Compound | PreQ1 | TPP | SAM-II |
|---|---|---|---|
| `O=C(Cc1nc(CNc2ccc(Cl)cc2)n[nH]1)NCc1ccccc1` | inactive | inactive | inactive |
| `O=C(N[C@@H]1CCN(C(=O)CCc2ccccc2F)C[C@H]1O)c1ccccn1` | inactive | inactive | inactive |
| `CC1(C)SCCN(S(=O)(=O)c2ccc(OCC#CCO)cc2)[C@@H]1C(=O)NO` | inactive | inactive | inactive |
| `CC(C)c1nc(CCNC(=O)c2ccc(C3CCNC3)cc2)cs1` (stereo unspecified) | inactive | inactive | inactive |
| `Cc1c(Cl)cc(C(=O)N2CCN(CCOCCO)CC2)cc1Cl` | inactive | inactive | inactive |
| `CC(N)c1nncn1C` (stereo unspecified) | inactive | inactive | inactive |
| `CCOC(=O)C1CCN(c2c(NCCc3ccc(OC)c(OC)c3)c(=O)c2=O)CC1` | inactive | inactive | inactive |
| `Cc1ccc(Nc2nc3ccccc3c3nnc(C)n23)cc1F` | inactive | inactive | inactive |
| `NC(=O)Nc1cc(-c2ccc(CN3CCOCC3)cc2)sc1C(N)=O` | inactive | inactive | inactive |
| `Cc1cc(C(=O)NOCCO)c(Nc2ccc(I)cc2F)n(C)c1=O` | inactive | inactive | inactive |
| `CC1CCCN(Cc2nc3c(c(=O)n(C)c(=O)n3C)n2CCCO)C1` (stereo unspecified) | inactive | inactive | inactive |
| `O=C(c1ccc(CO)cc1)N1CCCC(COc2ccc(F)cc2)C1` (stereo unspecified) | inactive | inactive | inactive |
| `Cc1cc(C)c(NC(=O)Cn2nnc(C(=O)Nc3cc(Cl)ccc3C)c2N)c(C)c1` | inactive | inactive | inactive |
| `CCOCCCNc1cc(-c2ccccc2)nc2nc(-c3cccnc3)nn12` | inactive | inactive | - |
| `Nc1cc2c3c(c1)C(c1ccccc1)CCN3CCC2c1ccccc1` (stereo unspecified) | inactive | inactive | inactive |
| `C[C@@H]1CCN(C(=O)CC#N)C[C@H]1N(C)c1ncnc2[nH]ccc12` | inactive | inactive | inactive |
| `Nc1ncncc1-c1ccc2ccccc2c1` | inactive | inactive | inactive |
| `CCOC1OC(=O)C[C@H]1NC(=O)[C@@H]1CCCN1C(=O)[C@@H](NC(=O)c1ccc(N)c(Cl)c1)C(C)(C)C` (stereo partly specified) | inactive | inactive | inactive |
| `Cc1cccc(-c2nc3c4ccccc4nc(NCCCOC(C)C)n3n2)c1` | inactive | inactive | - |
| `CCOC(=O)c1ccc(Nc2c(-c3cccc(O)c3)nc3cnccn23)cc1` | inactive | inactive | - |
| `COc1ccc(OC)c(C2C(C#N)=C(N)OC3=C2C(=O)CCC3)c1` (stereo unspecified) | inactive | inactive | inactive |
| `Cc1cnn(-c2cc(N3CCC(n4cc(CCCO)nn4)CC3)ncn2)c1` | inactive | inactive | inactive |
| `Cc1cc(C)n(-c2nc3ccccc3nc2Nc2cc(C(=O)O)ccc2C)n1` | inactive | inactive | inactive |
| `COc1ccc(F)c(CN2CCCC(O)(CNCCn3cc(C)nn3)C2=O)c1` (stereo unspecified) | inactive | inactive | inactive |
| `Cc1oc2c(CO)c(O)ccc2c(=O)c1-c1ccc(F)cc1` | inactive | inactive | inactive |
| `CN(C)c1ccc(C(c2ccc(N(C)C)cc2)c2ccc([N+](=O)[O-])cc2)cc1` | inactive | inactive | inactive |
| `CC[C@@]1(O)C(=O)OCc2c1cc1n(c2=O)Cc2cc3cc(O)ccc3nc2-1` | inactive | inactive | inactive |
| `O[C@]12CCNC[C@H]1CN(c1ccncc1F)CC2` | inactive | inactive | inactive |
| `COc1ccc(CCNC2=NS(=O)(=O)C(c3ccccc3)=C2C)c(OC)c1` | inactive | inactive | - |
| `CC1CN(CCN2CC(C)N(C=O)CC2C)C(C)CN1C=O` (stereo unspecified) | inactive | inactive | inactive |
| `COCCNc1oc(-c2ccccc2F)nc1S(=O)(=O)c1ccccc1` | inactive | inactive | - |
| `Cc1ccc(C)c(Nc2nnc(-c3ccc(C)c(S(=O)(=O)NCCO)c3)c3ccccc23)c1` | inactive | inactive | inactive |
| `Oc1ccccc1/N=C/c1c(O)ccc2ccccc12` | inactive | inactive | inactive |
| `CC(C)CN[C@H]1CS(=O)(=O)C[C@@H]1S(=O)(=O)c1ccc(F)cc1` | inactive | inactive | - |
| `CC(C)CC(O)C(=O)N1CCC(c2nccn2Cc2ccncc2)CC1` (stereo unspecified) | inactive | inactive | inactive |
| `CCc1ccccc1NC(=O)c1cccc(NC(=O)C2C=CCN2)c1` (stereo unspecified) | inactive | inactive | inactive |
| `Nc1nnc(SCC(=O)Nc2ccccc2)s1` | inactive | inactive | inactive |
| `Cc1ccccc1SC1CCN(C(=O)c2ccc(N)nc2)CC1` | inactive | inactive | inactive |
| `COc1cc(NC(=O)CNCC2CCCO2)cc(OC)c1` (stereo unspecified) | inactive | inactive | inactive |
| `O=C(CCN1C(=O)COc2ccccc21)N1CCOCC(CO)C1` (stereo unspecified) | inactive | inactive | inactive |
| `O=C1c2[nH]nc(-c3ccccc3O)c2C(c2ccc(Cl)cc2)N1CCCO` (stereo unspecified) | inactive | inactive | - |
| `CN(C)Cc1nc(C(=O)N2CCCC(Nc3ccccc3)C2)cs1` (stereo unspecified) | inactive | inactive | inactive |
| `CCC(=O)c1ccc(OCC(=O)N2CCNCC2C(=O)NC2CC2)cc1` (stereo unspecified) | inactive | inactive | inactive |
| `O=C1N(c2nncs2)CCN1[N+](=O)[O-]` | inactive | inactive | inactive |
| `Cc1ccc(-n2nc(C(=O)N(CCO)CCO)nc2-c2ccccc2)cc1` | inactive | inactive | - |
| `COc1ccc(-c2c(-c3cc(OC)c4c(c3OC)OCO4)noc2N)cc1` | inactive | inactive | inactive |
| `COc1ccc2c(c1)CC[C@@H](CN(C)CC(=O)O)[C@H]2c1ccccc1` | inactive | inactive | inactive |
| `Nc1ccc(-c2nc3ccccc3s2)c(Cl)c1` | active | active | active |
| `Cn1c(=O)c2c(-c3ccccc3)n(-c3ccc(N)cc3)cc2n(C)c1=O` | inactive | inactive | inactive |
| `COCCOC(=O)C1=C(C)NC2=C(C(=O)CC(c3ccccc3OC)C2)C1c1cccc(O)c1` (stereo unspecified) | inactive | inactive | inactive |
| `Cc1ccc(-c2ncc(C(=O)N(C)CC3(CO)CCCC3)c(O)n2)cc1` | inactive | inactive | inactive |
| `CCSc1ncc(-c2cc(-c3ccc(C)cn3)nc(N)c2C#N)cn1` | inactive | inactive | inactive |
| `N#Cc1c(N)nc2c(c1-c1ccc3c(c1)OCO3)CCCCCC2` | inactive | inactive | inactive |
| `COC(=O)C1=C(N)Oc2c(oc(CO)cc2=O)C1c1c(F)cccc1Cl` (stereo unspecified) | inactive | inactive | inactive |
| `CCCOc1ccc(C(N)CC(=O)O)cc1` (stereo unspecified) | inactive | inactive | inactive |
| `O=C(O)c1nn(-c2ccccc2-c2n[nH]c(=O)[nH]c2=O)c(=O)[nH]c1=O` | inactive | inactive | inactive |
| `NC1=C(c2nc3ccccc3s2)C(=O)CN1c1ccc(N2CCCCC2)cc1` | inactive | inactive | - |

Repeated from the top, 4 entries:

Compound,PreQ1,TPP,SAM-II
O=C(Cc1nc(CNc2ccc(Cl)cc2)n[nH]1)NCc1ccccc1,inactive,inactive,inactive
O=C(N[C@@H]1CCN(C(=O)CCc2ccccc2F)C[C@H]1O)c1ccccn1,inactive,inactive,inactive
CC1(C)SCCN(S(=O)(=O)c2ccc(OCC#CCO)cc2)[C@@H]1C(=O)NO,inactive,inactive,inactive
CC(C)c1nc(CCNC(=O)c2ccc(C3CCNC3)cc2)cs1 (stereo unspecified),inactive,inactive,inactive

Data from the ROBIN nucleic acid binder screens, doi:10.1002/anie.202211358.